According to PubChem BioAssay AID1671190 (National Center for Advancing Translational Sciences (NCATS), 2021):
Hit rate of the full screen: of about 580,000 compounds, about 6,100 (1.1%) were called active. The inconclusive results got no clear call from the source; some entries with a clear call stand among them for comparison. Calls come from the whole dose curve; as a rule, active = well fitted inhibition curve with a large enough effect; inconclusive = small, poorly fitted or top-dose-only effect, or another doubt; inactive = no such curve, though single readings can be large or run the other way. Where the call is inconclusive, the potency comes from a doubtful curve fit.
% is set by controls: 0 for no effect and ±100 for the full control effect; potency is the fitted concentration of half-maximal effect.

Sequences of proteins named here, by UniProt entry; tags and fusion partners are left off.
UniProt P18054, whole entry, looked up: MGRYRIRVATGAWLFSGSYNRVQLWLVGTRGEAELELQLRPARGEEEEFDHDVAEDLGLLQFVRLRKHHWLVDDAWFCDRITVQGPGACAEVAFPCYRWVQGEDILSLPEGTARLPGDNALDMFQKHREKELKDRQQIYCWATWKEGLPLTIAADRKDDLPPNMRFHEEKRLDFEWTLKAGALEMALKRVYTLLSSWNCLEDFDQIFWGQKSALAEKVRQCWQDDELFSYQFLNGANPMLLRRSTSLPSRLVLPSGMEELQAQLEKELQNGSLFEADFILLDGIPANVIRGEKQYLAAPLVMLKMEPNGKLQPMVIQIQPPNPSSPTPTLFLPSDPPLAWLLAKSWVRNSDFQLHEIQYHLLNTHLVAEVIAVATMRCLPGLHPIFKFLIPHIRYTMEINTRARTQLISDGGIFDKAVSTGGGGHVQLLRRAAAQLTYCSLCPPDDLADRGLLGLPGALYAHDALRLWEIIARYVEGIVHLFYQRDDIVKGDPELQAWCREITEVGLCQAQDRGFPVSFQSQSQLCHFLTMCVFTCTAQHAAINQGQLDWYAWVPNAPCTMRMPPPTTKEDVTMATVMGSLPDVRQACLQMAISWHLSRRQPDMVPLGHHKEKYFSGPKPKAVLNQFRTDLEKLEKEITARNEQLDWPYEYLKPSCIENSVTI

The compounds below were run against Polyunsaturated fatty acid lipoxygenase ALOX12 (Homo sapiens) (UniProt P18054) (assay: Primary qHTS assay for inhibitors of human arachidonate 12S-lipoxygenase (ALOX12): Round 2). Details: purified 12hLO, xylenol orange hydroperoxide absorbance; activity change, negative = inhibition: at 108 µM (top of the series) unless noted.
Procedure, shortened: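 Hydroperoxide product was detected by ferrous iron/xylenol orange as the 573 to 405 nm absorbance ratio. Arachidonic acid at 40 uM (final) was turned over for 30 min at room temperature by 150 nM human 12hLO, pH 7.0 Hepes buffer, after 15 min compound preincubation.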
In the case of `Cc1ccc(NC(=O)CCSCCc2ccccn2)cc1`, the Potency is reported as inconclusive: 1.41 µM [inhibitor, full curve, poor fit].
`Cn1c(N)c(C(=O)COC(=O)c2ccc([N+](=O)[O-])o2)c(=O)n(C)c1=O` was tested, and the “activity change, negative = inhibition” value was inactive: -12.4%.
`COC(=O)c1nc2n(n1)C(c1cccc(Cl)c1)C1=C(CC(C)(C)CC1=O)N2` (stereo not drawn) was tested, and the Potency was inconclusive: 100 µM [inhibitor, single point].
`Clc1ccc(CNc2cnccn2)cc1` was tested, and the “activity change, negative = inhibition” value was inactive: -2.55%.
With `CCCCNC(=O)C[C@@H]1C[C@@]2(C(=O)OCC)CCC=C2N(Cc2ccco2)C1=O` the Potency was inconclusive: 39.8 µM [inhibitor, single point].
In the case of `Cc1ccc(-c2c[n+](Cc3cccc(Cl)c3)c3n2CCC3)cc1`, the Potency is reported as inconclusive: 126 µM [inhibitor, single point].
For `N#Cc1cccc(NC(=O)C2CCCN2c2ncnc3ccccc23)c1` (stereo not drawn), the “activity change, negative = inhibition” value was inactive: -3.65%.
In the case of `COc1ccc(CNC(=O)CCCCCNc2nc(=S)[nH]c3ccccc23)cc1`, the “activity change, negative = inhibition” value is reported as inactive: -8.34%.
With `Cc1cc(S(=O)(=O)NC2CC(C)(C)NC(C)(C)C2)c(Cl)cc1Cl` the Potency was inconclusive: 126 µM [inhibitor, single point].
In the case of `Cc1cccc(-c2nnc(-c3ccccc3)o2)c1`, the “activity change, negative = inhibition” value is reported as inactive: -8.66%.
In the case of `CCn1c(SCc2ccccc2)nc2cc(S(N)(=O)=O)ccc21`, the Potency is reported as inconclusive: 44.7 µM [inhibitor, partial curve, poor fit].
`Cc1cc(C)c(/C=C(\C#N)C(N)=S)c(C)c1` was tested, and the Potency was inconclusive: 89.1 µM [inhibitor, partial curve, poor fit].
In the case of `COc1ccc2cc1Nc1ccc(cc1)C[C@H](NC(=O)Cc1cccc(Cl)c1)C(=O)N(C)[C@H](C(=O)NCCC(C)C)C2`, the Potency is reported as inconclusive: 7.08 µM [inhibitor, full curve, poor fit].
In the case of `Cc1cccc(-c2nc(C#N)c(N3CCN(C(=O)c4cccs4)CC3)o2)c1`, the “activity change, negative = inhibition” value is reported as inactive: 0.066%.
In the case of `O=C1CSC(c2cccnc2)N1Cc1cccnc1` (stereo not drawn), the Potency is reported as inconclusive: 25.1 µM [inhibitor, partial curve, poor fit].
With `COc1cccc(N2CCN(C(=O)c3ccc(CSc4nc5ccncc5[nH]4)cc3)CC2)c1` the Potency was inconclusive: 0.398 µM [inhibitor, full curve, poor fit].
In the case of `CCCC(=O)Nc1ccc2c(c1)COC2=O`, the Potency is reported as inconclusive: 89.1 µM [inhibitor, single point].
For `COCOc1cccc(CN2CCC(C)(Oc3cccc(C#N)c3)C2)c1` (stereo not drawn), the Potency was inconclusive: 35.5 µM [inhibitor, single point].
`O=S(=O)(c1ccccc1)N1CCN(c2ncnc3sc(-c4ccccc4)cc23)CC1` was tested, and the “activity change, negative = inhibition” value was inactive: 0.633%.
With `COc1cc(NC(=O)N[C@H]2CO[C@H]3[C@@H]2OC[C@@H]3Nc2nccc(-c3ccc(N(C)C)cc3)n2)cc(OC)c1` the Potency was inconclusive: 50.1 µM [inhibitor, partial curve, poor fit].
With `CCCn1c(CCC(=O)O)ccc1-c1ccc(F)cc1` the Potency was inconclusive: 44.7 µM [inhibitor, partial curve, poor fit].
In the case of `O=C(Nc1ccc(Cl)cc1)C1CCN(c2nc3ccccc3n3cccc23)CC1`, the Potency is reported as inconclusive: 11.2 µM [inhibitor, full curve].
`Cc1cc(N2CCOCC2)nc(Nc2ccc(NC(=O)CCc3ccccc3)cc2)n1` was tested, and the Potency was inconclusive: 126 µM [inhibitor, single point].
In the case of `O=C([C@@H]1C[C@H](Oc2cccnc2)CN1C(=O)C1CC=CC1)N1CCOCC1`, the “activity change, negative = inhibition” value is reported as inactive: 38.9%.
For `CCn1c(C)c(CCC(=O)NCc2cccc(OC)c2)c(=O)n2nc(-c3ccccc3OC)cc12`, the “activity change, negative = inhibition” value was inactive: 6.51%.
With `Cc1ccc2nc(CO[C@H]3CN(Cc4ccc(Cl)cc4)C[C@H]3F)[nH]c2c1` the “activity change, negative = inhibition” value was inactive: -4.14% [at 176 µM].
`Cc1ccc(NC(=O)CCc2nc3cc(Cl)ccc3n(CC(C)C)c2=O)cc1` was tested, and the Potency was inconclusive: 89.1 µM [inhibitor, partial curve, poor fit].
With `Cc1nn(CC(=O)N[C@H](C)c2ccccc2)c(=O)n1-c1ccc2c(c1)OCO2` the “activity change, negative = inhibition” value was inactive: -2.68%.
With `COc1ccc(N(CN2C(=O)c3ccccc3C2=O)C(=O)COc2ccc(Cl)cc2Cl)cc1` the Potency was inconclusive: 63.1 µM [inhibitor, partial curve, poor fit].
With `Cc1ccc(-c2cnc(CCC(=O)N(C)CC(=O)Nc3ccccc3Br)o2)cc1C` the Potency was inconclusive: 56.2 µM [inhibitor, partial curve, poor fit].
In the case of `O=C(COC(=O)c1cn(-c2ccccc2)nc1-c1ccccc1)Nc1ncc(Cl)cc1Cl`, the Potency is reported as active: 25.1 µM.
In the case of `CCOc1ccc2oc(C(=O)NCC(c3ccco3)N(C)C)c(C)c2c1` (stereo not drawn), the Potency is reported as inconclusive: 100 µM [inhibitor, single point].
For `COc1ccc(NC(=O)CN2C(=O)NC(C)(C3CC3)C2=O)cc1S(=O)(=O)N1CCOCC1` (stereo not drawn), the Potency was inconclusive: 3.55 µM [inhibitor, full curve, poor fit].
With `CCc1sc(C(=O)NCc2ccccc2)cc1C` the Potency was inconclusive: 126 µM [inhibitor, single point].
In the case of `CN(C)c1ccc(-c2ccc3ccccc3n2)cc1`, the Potency is reported as inconclusive: 44.7 µM [inhibitor, partial curve, poor fit].
For `Cc1ccc(NC(=S)NC(=O)C2CC2)cc1Cl`, the Potency was inconclusive: 28.2 µM [inhibitor, single point].
For `S=C1NCN(CC2CC2)CN1`, the Potency was inconclusive: 50.1 µM [inhibitor, partial curve, poor fit].
`COc1ccc(-c2cc3nc(C4CCN(C(=O)OC(C)(C)C)CC4)c(C(=O)Nc4cc(Cl)cc(Cl)c4)cn3n2)cc1` was tested, and the “activity change, negative = inhibition” value was inactive: 1.13%.
With `CC12CCC(C(=O)N(CC(O)CN3CCN(Cc4ccccc4)CC3)C1=O)C2(C)C` (stereo not drawn) the Potency was inconclusive: 39.8 µM [inhibitor, partial curve, poor fit].
For `Cc1nc(SCc2noc(-c3ccccc3O)n2)n(C2CC2)c1C`, the “activity change, negative = inhibition” value was inactive: -43.3%.
With `O=C(O)CCCCCn1c(SCC(=O)c2ccc(O)c(O)c2)nc2ccsc2c1=O` the Potency was inconclusive: 2 µM [inhibitor, full curve, poor fit].
For `C(=C\c1ccccc1)/CN1CCN(C(c2nnnn2C2CCCCC2)C2CC2)CC1` (stereo not drawn), the “activity change, negative = inhibition” value was inactive: -16.6%.
For `COCC(=O)N[C@@H]1CN(Cc2ccc(C)cc2C)C[C@H]1CO`, the Potency was inconclusive: 50.1 µM [inhibitor, partial curve].
